Results are given in words; binding and its absence hold for the method and conditions named. Binding seen in cells or lysates may run through a third protein. Some results given as binding are weak or reduced against the parent protein; the word gives no strength. Where a sequence is shown, tags or fusion partners need not be part of it.
Experiments:
[1] = biological target: T1, ZNF598-TEV-3xFLAG (human) (UniProt Q86UK7); assay: co-IP; FLAG-M2 resin IP of the 3xFLAG-tagged bait from ribosome-free cytosolic extracts (100,000 rpm supernatant) of transfected HEK293 cells (WT, ∆EDF1 or ∆GIGYF2; with or without 1.8 μM emetine for 30 min); 1xRNC buffer with 0.5% Triton X-100 and 1 mM DTT, 1 hr at 4°C; eluted with FLAG peptide; western blot
T1 sequence: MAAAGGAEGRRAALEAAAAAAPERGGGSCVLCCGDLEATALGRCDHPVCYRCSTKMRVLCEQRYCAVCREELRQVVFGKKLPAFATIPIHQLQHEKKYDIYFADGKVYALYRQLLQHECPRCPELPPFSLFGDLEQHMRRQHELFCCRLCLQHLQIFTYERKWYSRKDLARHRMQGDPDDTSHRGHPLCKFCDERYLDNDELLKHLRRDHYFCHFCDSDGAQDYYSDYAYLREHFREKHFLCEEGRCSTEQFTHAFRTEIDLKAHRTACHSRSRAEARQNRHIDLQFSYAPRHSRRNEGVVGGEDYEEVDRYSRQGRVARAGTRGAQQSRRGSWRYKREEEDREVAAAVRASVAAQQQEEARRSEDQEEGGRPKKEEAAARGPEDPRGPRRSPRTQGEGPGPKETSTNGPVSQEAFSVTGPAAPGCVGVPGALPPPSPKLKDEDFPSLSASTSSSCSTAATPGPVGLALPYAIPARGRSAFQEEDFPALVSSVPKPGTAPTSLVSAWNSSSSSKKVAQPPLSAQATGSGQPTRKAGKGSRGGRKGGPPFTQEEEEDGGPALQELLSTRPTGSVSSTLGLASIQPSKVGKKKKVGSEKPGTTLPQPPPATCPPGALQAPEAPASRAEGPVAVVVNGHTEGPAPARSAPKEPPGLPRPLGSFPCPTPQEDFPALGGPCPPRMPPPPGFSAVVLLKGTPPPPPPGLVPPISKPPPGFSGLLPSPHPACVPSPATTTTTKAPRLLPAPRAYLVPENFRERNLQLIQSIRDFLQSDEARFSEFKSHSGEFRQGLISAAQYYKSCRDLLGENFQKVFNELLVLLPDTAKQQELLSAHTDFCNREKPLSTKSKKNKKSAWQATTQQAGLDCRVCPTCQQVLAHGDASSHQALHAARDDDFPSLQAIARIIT

[2] = biological target: T1, ZNF598-TEV-3xFLAG (human); assay: co-IP; anti-FLAG M2 IP of ZNF598-3xFLAG from pooled sucrose gradient fractions (ribosome-free fractions 1-4 and heavy polysome fractions 7-10) of transfected WT or ∆EDF1 cells (with or without 1.8 μM emetine); 1xRNC with 0.05% digitonin; eluted with FLAG peptide; western blot
[3] = biological target: T2, ZNF598-TEV-3xFLAG (human), Q86UK7; assay: co-IP; FLAG-M2 resin IP of the 3xFLAG-tagged bait from ribosome-free cytosolic extracts (100,000 rpm supernatant) of transfected HEK293 cells (WT, ∆EDF1 or ∆GIGYF2; with or without 1.8 μM emetine for 30 min); 1xRNC buffer with 0.5% Triton X-100 and 1 mM DTT, 1 hr at 4°C; eluted with FLAG peptide; western blot; settings: remark: other sources report otherwise
T2 chain: T1 sequence

EDF1-GFP (human), O60869 = biological target: T3, EDF1-GFP (human), O60869; assay: co-IP; GFP-trap agarose IP of EDF1-GFP from ribosome-free cytosolic extracts of transfected WT HEK293 cells (with or without 1.8 μM emetine for 30 min); 1xRNC buffer with 0.5% Triton X-100 and 1 mM DTT, 1 hr at 4°C; eluted in SDS sample buffer; western blot; settings: remark: other sources report otherwise
T3 chain: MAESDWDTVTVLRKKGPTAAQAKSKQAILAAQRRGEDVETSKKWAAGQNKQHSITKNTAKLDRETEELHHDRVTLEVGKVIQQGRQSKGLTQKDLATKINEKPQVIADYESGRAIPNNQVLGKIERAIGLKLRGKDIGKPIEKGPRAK

[4] = biological target: T4, EDF1-TEV-3xFLAG (human), O60869; assay: co-IP; FLAG-M2 resin IP of the 3xFLAG-tagged bait from ribosome-free cytosolic extracts (100,000 rpm supernatant) of transfected HEK293 cells (WT, ∆EDF1 or ∆GIGYF2; with or without 1.8 μM emetine for 30 min); 1xRNC buffer with 0.5% Triton X-100 and 1 mM DTT, 1 hr at 4°C; eluted with FLAG peptide; western blot; settings: remark: other sources report otherwise
T4 chain: T3 chain

B1: Twin-Strep-GIGYF2 (protein, UniProt Q6Y7W6 1-1299)
chain: MAAETQTLNFGPEWLRALSSGGSITSPPLSPALPKYKLADYRYGREEMLALFLKDNKIPSDLLDKEFLPILQEEPLPPLALVPFTEEEQRNFSMSVNSAAVLRLTGRGGGGTVVGAPRGRSSSRGRGRGRGECGFYQRSFDEVEGVFGRGGGREMHRSQSWEERGDRRFEKPGRKDVGRPNFEEGGPTSVGRKHEFIRSESENWRIFREEQNGEDEDGGWRLAGSRRDGERWRPHSPDGPRSAGWREHMERRRRFEFDFRDRDDERGYRRVRSGSGSIDDDRDSLPEWCLEDAEEEMGTFDSSGAFLSLKKVQKEPIPEEQEMDFRPVDEGEECSDSEGSHNEEAKEPDKTNKKEGEKTDRVGVEASEETPQTSSSSARPGTPSDHQSQEASQFERKDEPKTEQTEKAEEETRMENSLPAKVPSRGDEMVADVQQPLSQIPSDTASPLLILPPPVPNPSPTLRPVETPVVGAPGMGSVSTEPDDEEGLKHLEQQAEKMVAYLQDSALDDERLASKLQEHRAKGVSIPLMHEAMQKWYYKDPQGEIQGPFNNQEMAEWFQAGYFTMSLLVKRACDESFQPLGDIMKMWGRVPFSPGPAPPPHMGELDQERLTRQQELTALYQMQHLQYQQFLIQQQYAQVLAQQQKAALSSQQQQQLALLLQQFQTLKMRISDQNIIPSVTRSVSVPDTGSIWELQPTASQPTVWEGGSVWDLPLDTTTPGPALEQLQQLEKAKAAKLEQERREAEMRAKREEEERKRQEELRRQQEEILRRQQEEERKRREEEELARRKQEEALRRQREQEIALRRQREEEERQQQEEALRRLEERRREEEERRKQEELLRKQEEEAAKWAREEEEAQRRLEENRLRMEEEAARLRHEEEERKRKELEVQRQKELMRQRQQQQEALRRLQQQQQQQQLAQMKLPSSSTWGQQSNTTACQSQATLSLAEIQKLEEERERQLREEQRRQQRELMKALQQQQQQQQQKLSGWGNVSKPSGTTKSLLEIQQEEARQMQKQQQQQQQHQQPNRARNNTHSNLHTSIGNSVWGSINTGPPNQWASDLVSSIWSNADTKNSNMGFWDDAVKEVGPRNSTNKNKNNASLSKSVGVSNRQNKKVEEEEKLLKLFQGVNKAQDGFTQWCEQMLHALNTANNLDVPTFVSFLKEVESPYEVHDYIRAYLGDTSEAKEFAKQFLERRAKQKANQQRQQQQLPQQQQQQPPQQPPQQPQQQDSVWGMNHSTLHSVFQTNQSNNQQSNFEAVQSGKKKKKQKMVRADPSLLGFSVNASSERLNMGEIETLDDY
B1 was tested, and the binding [1] was “binds” and the binding [2] was “binds”.

B2: EDF1-GFP, O60869 1-148 (protein)
chain: T3 chain
For B2, the binding [3] was “no binding”.

B3: ZNF598-TEV-3xFLAG, Q86UK7 1-904 (enzyme)
chain: T1 sequence
With B3 the binding (EDF1-GFP (human), O60869) was “no binding”.

B4: Twin-Strep-GIGYF2, Q6Y7W6 1-1299 (protein)
chain: B1 chain
For B4, the binding (EDF1-GFP (human), O60869) was “no binding” and the binding [4] was “no binding”.

Reference: PMC7381030
